Data as given in PubChem BioAssay AID1487 (National Center for Advancing Translational Sciences (NCATS), 2009).
Values joined by “and” are separate entries in the source; they are usually repeats but may differ in a detail not shown here. Identical values can stand only once. Some of the results follow. Further columns of the screen follow, without active or inactive calls. Compounds called inactive in the main read-out are mostly missing here. The note in brackets gives the kind of curve behind each potency; many fits are weak.

Assay: qHTS Assay for Modulators of Lamin A Splicing
Details: HeLa LMNA splicing GFP/RFP minigene ratio, 48 h
Outline: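 S3 HeLa cells stably expressing lamin A-EGFP splicing minigene plus DsRed2, 600 cells/well, 48 h compound exposure at 37C. Laser-scanning cytometry; analysed as GFP (500-530 nm)/RFP (575-640 nm) total intensity ratio; 0.5% DMSO vehicle.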

[1] = measured here: RFP viability control channel
[2] = measured here: GFP splicing reporter channel

Structure (SMILES) | AC50 [1] | AC50 [2]
COc1ccc(S(=O)(=O)Nc2ccc3c(c2)OCCO3)cc1Cl | 22.4 µM [rising, single point] | 
O=S(=O)(NCc1ccc2c(c1)OCO2)c1ccc2c(c1)oc1ccccc12 | 25.1 µM [rising, partial curve] | 17.8 µM [rising, single point]
COc1ccc(NC(=O)Cn2c(=O)c3cccn3c3ccccc32)cc1Cl |  | 0.0141 µM [rising, full curve, poor fit]
CCCNc1c(NC(C)=O)c(=O)oc2ccccc12 | 35.5 µM [rising, single point] | 
O=C(Nc1ccc(-c2nc3ccccc3o2)c(O)c1)c1ccccc1 |  | 1.12 µM [rising, partial curve]
O=C(/C=C/c1ccc(F)cc1)NCCc1ccc2c(c1)OCCO2 | 0.316 µM [rising, single point] | 
Cc1cc(C)cc(NC(=O)CN2CCCN(S(=O)(=O)c3ccc(Br)s3)CC2)c1 |  | 17.8 µM [rising, single point]
CC1CCN(c2nc(-c3ccncc3)nc3ccccc23)CC1 | 22.4 µM [rising, partial curve] | 14.1 µM [rising, single point]
Cc1ccc(Cc2cnc(NC(=O)CN3CCOCC3)s2)cc1Cl | 12.6 µM [rising, partial curve, poor fit] | 
CCCN1C(=O)/C(=C\C=C2/Sc3ccccc3N2CC)SC1=S | 4.47 µM [falling, single point] | 
Cc1ccc(CO/N=C/C2=C(Cl)c3ccccc3CC2)cc1 |  | 12.6 µM [rising, single point]
N#C/C(=C\c1coc2ccccc2c1=O)C(N)=S | 35.5 µM [falling, partial curve, poor fit] | 
Cc1cccc2cc(CN(CC3CCCO3)C(=S)NCc3ccco3)c(=O)[nH]c12 (configuration not stated) | 12.6 µM [falling, partial curve] | 12.6 µM [falling, partial curve]
O=C(Oc1cccc(/C=N/Nc2nc(Nc3ccccc3)nc(N3CCOCC3)n2)c1)c1ccco1 | 31.6 µM [rising, single point] | 1.58 µM [falling, partial curve]
COc1ccc2[nH]c(=O)c(CN(C(=O)c3ccco3)C(C)C)cc2c1 | 0.316 µM [falling, full curve, poor fit] | 
[O-][N+]1=c2ccc(Nc3ccccc3)cc2=NC12CCCCC2 | 11.2 µM [falling, partial curve] | 10 µM [falling, partial curve]
CC(C)=CCC/C(C)=C/CC/C(C)=C/CSc1ccccc1C(=O)O | 0.00398 µM [falling, full curve, poor fit] | 0.00501 µM [falling, full curve, poor fit]
COc1ccc(/C=N/Nc2nnc(Cc3ccc(OC)c(OC)c3)c(=O)[nH]2)cc1OC | 35.5 µM [falling, single point] | 35.5 µM [falling, single point]
O=C(Nc1ccccn1)c1c(O)c2cccc3c2n(c1=O)CCC3 | 0.0112 µM [falling, full curve, poor fit] | 
C/C(CC1CC2=C(CC1(C)C)C(C)(C)CCC2)=N\NC(N)=S (configuration not stated) | 11.2 µM [falling, partial curve, poor fit] | 31.6 µM [falling, single point]
COc1cc(CCC(=O)Nc2ccc(C)c(S(=O)(=O)N(C)C)c2)cc(OC)c1OC | 12.6 µM [rising, partial curve] | 8.91 µM [rising, partial curve]
O=C(Nc1nc2ccccc2s1)c1ccc(N2CCCCC2)c([N+](=O)[O-])c1 | 12.6 µM [rising, partial curve] | 
Cc1noc(COc2ccccc2OCc2onc(C)c2Cl)c1Cl | 35.5 µM [rising, single point] | 
O=C(Oc1c(Cl)cc(Cl)c2cccnc12)c1ccco1 | 10 µM [rising, partial curve] | 
Cc1ccc(C2CC2C(=O)NNC(=S)Nc2cccc(C)c2)cc1 (configuration not stated) | 25.1 µM [rising, single point] | 12.6 µM [rising, partial curve]
CC(=O)Nc1ccc(C)c([N+](=O)[O-])c1 |  | 8.91 µM [rising, partial curve]
CC1=C(C(=O)Nc2ccccc2)C(c2cc(CN3CCOCC3)cs2)C2=C(CCCC2=O)N1 (configuration not stated) |  | 3.55 µM [rising, full curve, poor fit]

Structure (SMILES) | AC50 [1] | AC50 [2]
O=C(NCCc1nc2ccccc2[nH]1)/C(=C/c1ccc2c(c1)OCO2)NC(=O)c1ccc(Cl)cc1Cl | 28.2 µM [rising, single point] | 
CCOc1ccc(Cl)cc1CNCCCSc1nnnn1C | 0.00316 µM [falling, full curve, poor fit] | 
Cc1ccc(NC(=O)c2ccc(S(=O)(=O)N3CCC(C)CC3)cc2)cc1 | 1.58 µM [falling, full curve, poor fit] | 2.51 µM [falling, full curve, poor fit]
N#CCCN(C(=O)COc1ccc(F)cc1Br)c1ccccc1F | 0.0112 µM [rising, full curve, poor fit] | 
COc1ccc(-n2cnnc2SCC(=O)Nc2cc(S(=O)(=O)N3CCCCC3)ccc2C)cc1 | 14.1 µM [rising, single point] | 
COc1ccc(NC(=O)c2ccc(-c3ccc(-c4noc(C)n4)cc3C)cc2)cc1N1CCN(C)CC1 | 11.2 µM [falling, partial curve] | 12.6 µM [falling, partial curve, poor fit]
O=C(COC(=O)c1cc(S(=O)(=O)Nc2ccccc2Cl)ccc1O)Nc1nc2ccccc2s1 |  | 10 µM [falling, single point]
Cn1cnc([N+](=O)[O-])c1Oc1cccc(O)c1 | 31.6 µM [rising, single point] | 
O=C(CSc1cccc[n+]1[O-])N1CCc2ccccc21 |  | 0.00447 µM [falling, full curve]
O=C(COc1cccc(F)c1)N1c2ccccc2Sc2ccccc21 | 14.1 µM [rising, single point] | 12.6 µM [rising, single point]
O=c1c(Br)c(Br)cnn1-c1ccccc1 | 3.16 µM [rising, partial curve] | 11.2 µM [falling, partial curve]
COC(=O)c1sccc1NC(=O)Cc1ccc(Br)cc1 | 0.0112 µM [falling, full curve, poor fit] | 0.00316 µM [falling, full curve, poor fit]
CCOC(=O)C(C)N1C(=O)S/C(=C/c2cc(C)n(-c3ccccn3)c2C)C1=O (configuration not stated) | 20 µM [rising, single point] | 
Cc1cc(N2CCN(C(=O)c3ccco3)CC2)nc(-c2ccccc2)n1 | 14.1 µM [rising, single point] | 35.5 µM [rising, single point]
CCCCNc1ccc(C(=O)OCCN(C)C)cc1 | 12.6 µM [falling, single point] and 3.98 µM [rising, full curve, poor fit] | 8.91 µM [falling, single point] and 0.891 nM [falling, full curve, poor fit]
CCN1CCN(C(c2ccc(OC)cc2)c2nnnn2Cc2ccc3c(c2)OCO3)CC1 (configuration not stated) |  | 0.0224 µM [rising, full curve, poor fit]
O=[N+]([O-])c1ccccc1S(=O)(=O)NCc1ccc(F)cc1 | 0.00794 µM [rising, full curve, poor fit] | 0.00447 µM [rising, full curve, poor fit]
O=C(Nc1ccc(Cl)cc1Cl)c1cc(S(=O)(=O)N2CCCCCC2)ccc1F |  | 0.251 µM [rising, full curve, poor fit]
COc1ccc(CCNC(=O)c2cc(-c3ccco3)on2)cc1OC | 0.0794 µM [falling, full curve, poor fit] | 5.62 µM [falling, single point]
COc1ccc(Br)cc1/C(C)=N/NC1=NCCN1 | 11.2 µM [rising, partial curve] | 
COc1ccc(C(=O)c2ccc(OC)c(N)c2)cc1N | 0.794 µM [rising, full curve, poor fit] | 
Cc1ccc(NC(=O)CSc2ccc(-c3ccc4c(c3)OCO4)nn2)cc1F | 12.6 µM [rising, partial curve, poor fit] | 
O=C(N/C=C/c1ccccc1)Nc1ccc(Cl)cc1 | 31.6 µM [rising, single point] | 35.5 µM [rising, single point]
CCN(C(=O)CSc1nnc(Cn2nnc3ccccc32)o1)c1nc(-c2ccccc2)cs1 | 22.4 µM [rising, single point] | 
O=C(c1ccco1)N1CCN(CCCCOc2ccc(F)cc2)CC1 | 7.08 µM [rising, partial curve, poor fit] | 14.1 µM [rising, partial curve]
Cc1ccc(C(=O)NCC(c2ccc3c(c2)OCO3)N2CCN(c3ccc(F)cc3)CC2)cc1 (configuration not stated) | 35.5 µM [falling, single point] | 35.5 µM [falling, single point]
COc1cccc(-c2cc(NCc3ccc(OC)cc3OC)ncn2)c1 | 8.91 µM [falling, partial curve] | 8.91 µM [falling, partial curve]
